Test results reported in PMC4647842.
These are yes or no findings as the source states them, for the method shown. Binding seen in cells or lysates may run through a third protein. Some results given as binding are weak or reduced against the parent protein; the word gives no strength. For some assays here: Where a sequence is shown, tags or fusion partners need not be part of it.

Protein sequences, listed by entry. Tags and fused reporters are not part of them. Lines headed by an entry give the natural chain unless they say otherwise; changes in a name come on top.
UniProt P34152: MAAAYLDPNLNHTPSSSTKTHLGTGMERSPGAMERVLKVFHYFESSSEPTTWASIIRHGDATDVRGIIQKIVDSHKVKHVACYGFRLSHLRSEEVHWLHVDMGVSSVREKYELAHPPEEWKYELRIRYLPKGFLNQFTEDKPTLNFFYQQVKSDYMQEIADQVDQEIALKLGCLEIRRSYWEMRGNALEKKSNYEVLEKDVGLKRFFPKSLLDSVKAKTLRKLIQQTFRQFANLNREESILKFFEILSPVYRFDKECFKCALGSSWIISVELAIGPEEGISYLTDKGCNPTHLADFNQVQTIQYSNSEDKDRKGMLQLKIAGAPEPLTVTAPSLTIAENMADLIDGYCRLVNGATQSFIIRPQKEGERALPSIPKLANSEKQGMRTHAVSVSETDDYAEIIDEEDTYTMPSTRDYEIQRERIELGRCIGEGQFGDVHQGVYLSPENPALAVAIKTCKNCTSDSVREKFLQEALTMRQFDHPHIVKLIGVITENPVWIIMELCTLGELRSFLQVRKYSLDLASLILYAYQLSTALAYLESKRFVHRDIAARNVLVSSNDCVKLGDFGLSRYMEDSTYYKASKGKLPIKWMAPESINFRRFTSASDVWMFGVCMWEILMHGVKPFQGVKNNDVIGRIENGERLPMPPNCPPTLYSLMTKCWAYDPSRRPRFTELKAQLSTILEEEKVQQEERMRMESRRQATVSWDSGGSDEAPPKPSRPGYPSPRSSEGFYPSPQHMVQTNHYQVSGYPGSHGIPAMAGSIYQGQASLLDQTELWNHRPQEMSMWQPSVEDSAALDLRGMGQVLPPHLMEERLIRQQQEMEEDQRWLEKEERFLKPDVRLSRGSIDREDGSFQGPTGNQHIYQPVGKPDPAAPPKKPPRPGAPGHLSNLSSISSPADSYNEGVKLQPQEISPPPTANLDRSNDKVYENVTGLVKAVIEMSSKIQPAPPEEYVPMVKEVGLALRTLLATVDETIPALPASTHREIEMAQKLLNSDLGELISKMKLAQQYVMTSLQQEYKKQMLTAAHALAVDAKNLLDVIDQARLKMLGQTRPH
UniProt Q5S007: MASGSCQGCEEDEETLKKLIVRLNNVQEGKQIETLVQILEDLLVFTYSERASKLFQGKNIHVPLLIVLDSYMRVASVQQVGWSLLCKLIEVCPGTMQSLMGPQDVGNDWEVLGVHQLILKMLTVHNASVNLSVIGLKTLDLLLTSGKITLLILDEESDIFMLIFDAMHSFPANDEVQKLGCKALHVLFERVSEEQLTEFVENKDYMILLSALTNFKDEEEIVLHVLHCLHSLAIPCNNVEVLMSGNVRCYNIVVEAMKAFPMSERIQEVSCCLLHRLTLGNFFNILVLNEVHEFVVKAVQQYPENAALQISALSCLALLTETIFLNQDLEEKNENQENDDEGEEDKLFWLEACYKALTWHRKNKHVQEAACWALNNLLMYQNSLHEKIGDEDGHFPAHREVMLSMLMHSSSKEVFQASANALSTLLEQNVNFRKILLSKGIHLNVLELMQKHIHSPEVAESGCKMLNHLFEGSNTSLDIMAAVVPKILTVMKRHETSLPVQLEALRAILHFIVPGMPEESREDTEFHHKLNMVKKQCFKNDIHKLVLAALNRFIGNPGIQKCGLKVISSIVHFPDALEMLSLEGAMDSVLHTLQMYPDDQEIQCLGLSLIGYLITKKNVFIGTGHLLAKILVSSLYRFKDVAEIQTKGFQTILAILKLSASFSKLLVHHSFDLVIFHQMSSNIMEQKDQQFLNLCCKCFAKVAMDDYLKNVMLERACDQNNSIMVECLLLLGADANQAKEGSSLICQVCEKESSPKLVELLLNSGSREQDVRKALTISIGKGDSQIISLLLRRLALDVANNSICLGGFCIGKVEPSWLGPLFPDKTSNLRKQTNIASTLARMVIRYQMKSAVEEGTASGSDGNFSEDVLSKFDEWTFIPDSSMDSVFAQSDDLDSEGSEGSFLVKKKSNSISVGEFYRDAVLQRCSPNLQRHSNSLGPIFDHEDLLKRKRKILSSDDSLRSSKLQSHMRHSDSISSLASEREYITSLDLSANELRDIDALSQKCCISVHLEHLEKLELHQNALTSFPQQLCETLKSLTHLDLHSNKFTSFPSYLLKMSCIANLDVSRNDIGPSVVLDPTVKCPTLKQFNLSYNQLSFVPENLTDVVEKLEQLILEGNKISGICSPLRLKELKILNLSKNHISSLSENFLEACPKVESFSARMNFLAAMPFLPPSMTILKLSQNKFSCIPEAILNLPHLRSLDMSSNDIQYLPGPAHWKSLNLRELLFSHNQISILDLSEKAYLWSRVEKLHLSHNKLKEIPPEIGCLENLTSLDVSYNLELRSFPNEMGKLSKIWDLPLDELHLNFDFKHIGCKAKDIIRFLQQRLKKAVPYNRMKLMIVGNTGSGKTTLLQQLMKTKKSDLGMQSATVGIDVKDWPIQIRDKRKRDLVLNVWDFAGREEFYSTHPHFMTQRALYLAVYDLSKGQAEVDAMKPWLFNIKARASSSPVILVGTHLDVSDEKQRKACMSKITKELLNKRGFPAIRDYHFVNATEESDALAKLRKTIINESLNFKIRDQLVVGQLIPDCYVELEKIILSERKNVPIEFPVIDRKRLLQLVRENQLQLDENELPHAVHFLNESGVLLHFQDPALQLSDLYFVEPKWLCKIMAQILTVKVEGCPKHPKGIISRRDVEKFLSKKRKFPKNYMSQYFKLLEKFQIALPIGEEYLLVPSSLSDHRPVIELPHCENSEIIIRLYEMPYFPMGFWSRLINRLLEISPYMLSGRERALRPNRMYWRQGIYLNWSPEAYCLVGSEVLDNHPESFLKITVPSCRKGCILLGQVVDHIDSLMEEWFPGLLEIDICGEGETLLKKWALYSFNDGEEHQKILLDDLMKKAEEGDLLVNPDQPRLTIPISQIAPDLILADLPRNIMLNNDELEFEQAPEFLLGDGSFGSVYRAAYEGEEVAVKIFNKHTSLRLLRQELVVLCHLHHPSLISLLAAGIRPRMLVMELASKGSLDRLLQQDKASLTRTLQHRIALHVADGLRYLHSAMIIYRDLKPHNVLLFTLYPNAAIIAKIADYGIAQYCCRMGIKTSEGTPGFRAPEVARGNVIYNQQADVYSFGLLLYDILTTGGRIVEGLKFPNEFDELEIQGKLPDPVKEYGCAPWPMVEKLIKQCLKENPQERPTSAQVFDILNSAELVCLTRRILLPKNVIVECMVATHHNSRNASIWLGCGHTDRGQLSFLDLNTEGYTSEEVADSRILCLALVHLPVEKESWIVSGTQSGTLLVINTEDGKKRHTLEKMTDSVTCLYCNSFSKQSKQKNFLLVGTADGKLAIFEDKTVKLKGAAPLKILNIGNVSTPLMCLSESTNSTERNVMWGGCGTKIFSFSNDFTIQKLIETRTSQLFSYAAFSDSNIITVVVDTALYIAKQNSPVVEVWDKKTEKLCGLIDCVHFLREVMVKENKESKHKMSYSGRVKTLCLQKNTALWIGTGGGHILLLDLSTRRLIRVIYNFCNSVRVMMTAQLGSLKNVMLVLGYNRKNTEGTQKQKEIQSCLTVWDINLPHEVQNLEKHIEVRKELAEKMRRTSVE
UniProt Q5S006: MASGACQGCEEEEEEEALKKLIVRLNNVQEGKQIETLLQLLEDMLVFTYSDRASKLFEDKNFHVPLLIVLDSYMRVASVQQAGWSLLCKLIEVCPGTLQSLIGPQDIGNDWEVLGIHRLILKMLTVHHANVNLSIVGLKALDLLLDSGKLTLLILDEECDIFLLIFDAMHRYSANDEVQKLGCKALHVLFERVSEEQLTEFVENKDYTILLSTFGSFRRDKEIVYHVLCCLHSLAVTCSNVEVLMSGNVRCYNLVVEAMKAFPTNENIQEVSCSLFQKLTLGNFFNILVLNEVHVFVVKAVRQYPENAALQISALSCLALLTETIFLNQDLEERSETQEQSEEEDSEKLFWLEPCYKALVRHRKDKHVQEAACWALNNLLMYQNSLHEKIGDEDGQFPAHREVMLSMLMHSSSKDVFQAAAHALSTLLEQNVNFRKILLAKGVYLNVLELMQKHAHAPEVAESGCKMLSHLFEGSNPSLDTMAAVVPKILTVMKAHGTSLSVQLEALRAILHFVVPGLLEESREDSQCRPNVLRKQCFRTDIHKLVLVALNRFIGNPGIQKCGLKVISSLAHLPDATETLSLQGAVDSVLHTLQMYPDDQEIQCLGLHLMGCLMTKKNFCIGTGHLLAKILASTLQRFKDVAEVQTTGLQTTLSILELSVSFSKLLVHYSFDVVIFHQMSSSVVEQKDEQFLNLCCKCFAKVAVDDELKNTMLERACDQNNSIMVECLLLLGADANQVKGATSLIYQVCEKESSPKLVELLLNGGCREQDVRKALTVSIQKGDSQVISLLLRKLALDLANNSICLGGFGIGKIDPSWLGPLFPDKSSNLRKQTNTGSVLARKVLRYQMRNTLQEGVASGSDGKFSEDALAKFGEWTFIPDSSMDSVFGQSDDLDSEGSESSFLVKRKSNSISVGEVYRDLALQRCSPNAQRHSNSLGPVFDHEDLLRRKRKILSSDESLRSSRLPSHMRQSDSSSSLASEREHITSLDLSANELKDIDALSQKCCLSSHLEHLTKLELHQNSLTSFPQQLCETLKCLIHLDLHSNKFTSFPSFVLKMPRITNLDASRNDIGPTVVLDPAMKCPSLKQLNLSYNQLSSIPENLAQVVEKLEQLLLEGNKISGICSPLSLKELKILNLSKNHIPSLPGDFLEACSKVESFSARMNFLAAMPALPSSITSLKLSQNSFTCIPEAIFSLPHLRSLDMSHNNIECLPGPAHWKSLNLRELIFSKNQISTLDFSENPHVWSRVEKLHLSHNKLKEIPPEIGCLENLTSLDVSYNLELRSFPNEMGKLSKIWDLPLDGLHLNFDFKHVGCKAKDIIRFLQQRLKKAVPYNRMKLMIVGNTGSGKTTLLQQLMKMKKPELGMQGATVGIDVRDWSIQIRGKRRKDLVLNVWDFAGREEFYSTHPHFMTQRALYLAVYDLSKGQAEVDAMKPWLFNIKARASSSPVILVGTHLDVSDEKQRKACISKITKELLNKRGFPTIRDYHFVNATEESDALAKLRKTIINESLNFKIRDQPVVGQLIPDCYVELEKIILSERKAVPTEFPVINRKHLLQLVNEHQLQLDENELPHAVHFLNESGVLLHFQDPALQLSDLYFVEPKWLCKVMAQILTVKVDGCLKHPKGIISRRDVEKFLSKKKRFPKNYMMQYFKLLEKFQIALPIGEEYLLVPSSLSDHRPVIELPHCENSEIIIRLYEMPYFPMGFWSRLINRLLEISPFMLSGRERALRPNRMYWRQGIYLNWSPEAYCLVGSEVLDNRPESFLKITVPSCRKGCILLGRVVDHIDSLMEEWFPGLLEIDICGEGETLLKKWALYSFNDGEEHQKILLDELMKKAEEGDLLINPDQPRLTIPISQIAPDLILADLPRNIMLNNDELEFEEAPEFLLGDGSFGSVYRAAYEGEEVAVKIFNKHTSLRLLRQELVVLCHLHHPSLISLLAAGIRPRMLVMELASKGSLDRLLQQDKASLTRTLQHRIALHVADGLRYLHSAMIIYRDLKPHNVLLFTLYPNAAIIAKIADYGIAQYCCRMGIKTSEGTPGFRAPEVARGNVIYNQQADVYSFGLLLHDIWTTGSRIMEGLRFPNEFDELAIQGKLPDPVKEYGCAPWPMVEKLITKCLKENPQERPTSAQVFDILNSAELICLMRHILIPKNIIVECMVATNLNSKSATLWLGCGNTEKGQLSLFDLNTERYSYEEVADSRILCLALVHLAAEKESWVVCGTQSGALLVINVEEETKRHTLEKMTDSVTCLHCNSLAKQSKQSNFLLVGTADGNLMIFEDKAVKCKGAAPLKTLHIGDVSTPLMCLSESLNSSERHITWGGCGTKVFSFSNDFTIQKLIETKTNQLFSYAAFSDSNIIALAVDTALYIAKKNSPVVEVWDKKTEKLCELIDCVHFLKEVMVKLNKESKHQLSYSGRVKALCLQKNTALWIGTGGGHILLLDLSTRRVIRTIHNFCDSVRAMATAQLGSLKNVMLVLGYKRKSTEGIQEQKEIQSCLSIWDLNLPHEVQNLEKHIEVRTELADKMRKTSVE

Assays:
[1] = target: Focal adhesion kinase (FAK), endogenous in HEK 293T cells (human (endogenous in HEK 293T)) (UniProt Q05397); test: co-IP; HEK 293T transfected with FLAG-tagged LRRK2 domains (F1-F7), lysed 48 h after transfection; precipitated with anti-FAK; western blot
[2] = target: FLAG-FAK (human FAK in p3xFLAG-CMV-7.1) (human) (UniProt Q05397); test: co-IP; HEK 293T co-transfected with Myc-LRRK2 (WT, GS or DA) and FLAG-FAK or FLAG-FAK domains, lysed 48 h after transfection; precipitated with anti-FLAG, Protein G agarose; western blot
[3] = target: Focal adhesion kinase (FAK), endogenous in mouse microglia (mouse (endogenous in primary microglia)) (UniProt P34152); test: proximity ligation; in situ PLA in fixed, permeabilised non-Tg and GS-Tg mouse microglia with or without 100 uM ADP for 5 min; antibodies against LRRK2 (N231B/34 or N241A/34) and FAK (#3285)
[4] = target: Leucine-rich repeat kinase 2 (LRRK2), endogenous in HEK 293T cells (human (endogenous in HEK 293T)) (UniProt Q5S007); test: co-IP; HEK 293T cells treated with 100 uM ADP for the indicated times or untreated; precipitated with an antibody against LRRK2; western blot for FAK; IgG as negative control
[5] = target: Focal adhesion kinase (FAK), endogenous in mouse brain (mouse (endogenous in brain)) (UniProt P34152); test: co-IP; endogenous proteins in mouse brain, human brain or rat primary microglia lysates (200-500 ug); antibodies against LRRK2 or FAK, Protein G agarose; buffer 1% Triton X-100, 150 mM NaCl, phosphate, 50 mM NaF, 1 mM EDTA, 1 mM Na3VO4; western blot; IgG as negative control
[6] = target: T1, FLAG-tagged FERM domain of FAK (human) (UniProt Q05397); test: co-IP; HEK 293T co-transfected with Myc-LRRK2 (WT, GS or DA) and FLAG-FAK or FLAG-FAK domains, lysed 48 h after transfection; precipitated with anti-FLAG, Protein G agarose; western blot
T1 sequence: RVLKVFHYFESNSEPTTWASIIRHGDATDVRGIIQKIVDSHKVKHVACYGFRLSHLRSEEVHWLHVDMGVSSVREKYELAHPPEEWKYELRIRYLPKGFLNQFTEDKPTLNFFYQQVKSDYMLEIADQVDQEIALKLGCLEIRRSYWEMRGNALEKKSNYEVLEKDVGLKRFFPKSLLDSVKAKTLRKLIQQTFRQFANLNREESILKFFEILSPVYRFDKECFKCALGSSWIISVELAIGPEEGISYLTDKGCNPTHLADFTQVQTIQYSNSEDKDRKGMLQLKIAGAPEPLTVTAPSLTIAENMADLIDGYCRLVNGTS

[7] = target: FLAG-tagged kinase domain of FAK (human) (UniProt Q05397); test: as above
[8] = target: Focal adhesion kinase (FAK), endogenous in human brain (human (endogenous in brain)) (UniProt Q05397); test: co-IP; endogenous proteins in mouse brain, human brain or rat primary microglia lysates (200-500 ug); antibodies against LRRK2 or FAK, Protein G agarose; buffer 1% Triton X-100, 150 mM NaCl, phosphate, 50 mM NaF, 1 mM EDTA, 1 mM Na3VO4; western blot; IgG as negative control

## FLAG-tagged kinase domain of LRRK2 (from UniProt Q5S007 1879-2138) (domain or fragment)
[1]
  binding: binds

## C-terminal 3xMyc-tagged D1994A-LRRK2 (from UniProt Q5S007 1-2527)
[2]
  binding: binds

## Leucine-rich repeat kinase 2 (LRRK2), endogenous in non-Tg mouse microglia (from UniProt Q5S006 1-2527)
[3]
  binding: binds

## Focal adhesion kinase (FAK), endogenous in HEK 293T cells (from UniProt Q05397 1-1052)
[4]
  binding: binds

## G2019S-LRRK2 of G2019S-LRRK2 transgenic mice (GS-Tg microglia) (from UniProt Q5S007 1-2527)
[3]
  binding: binds

## C-terminal 3xMyc-tagged G2019S-LRRK2 (from UniProt Q5S007 1-2527)
[2]
  binding: binds

## Leucine-rich repeat kinase 2 (LRRK2), endogenous in mouse brain (from UniProt Q5S006 1-2527)
[5]
  binding: binds

## C-terminal 3xMyc-tagged wild-type LRRK2 (from UniProt Q5S007 1-2527)
[2]
  binding: binds
[6]
  binding: binds
[7]
  binding: binds

## Leucine-rich repeat kinase 2 (LRRK2), endogenous in human brain (from UniProt Q5S007 1-2527)
[8]
  binding: binds
